The results in this text go back to article PMC7053772, “Characterization and assembly of the Pseudomonas aeruginosa aspartate transcarbamoylase-pseudo dihydroorotase complex” (PLoS ONE, 2020).

These are yes or no findings as the source states them, for the method shown. Some entries that bind do so weakly or less than the wild type.

The target in the experiment is T1, P. aeruginosa ATCase without the first 11 residues (Pseudomonas aeruginosa) (UniProt Q59653).
T1 sequence: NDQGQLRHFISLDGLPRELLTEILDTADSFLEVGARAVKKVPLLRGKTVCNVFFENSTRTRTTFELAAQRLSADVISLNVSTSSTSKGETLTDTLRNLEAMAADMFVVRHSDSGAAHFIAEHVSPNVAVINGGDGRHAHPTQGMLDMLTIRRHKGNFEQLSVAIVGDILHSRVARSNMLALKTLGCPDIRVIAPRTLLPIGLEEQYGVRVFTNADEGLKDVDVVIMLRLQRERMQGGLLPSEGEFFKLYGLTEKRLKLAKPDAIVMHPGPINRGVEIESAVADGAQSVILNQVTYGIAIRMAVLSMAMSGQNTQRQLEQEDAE
The experiment is described as follows: co-expression and co-purification, with ATCase activity of the product; mutant ATCase constructs co-transformed and co-purified with the pyrX gene encoding pDHO in E. coli.

B1: Pseudomonas aeruginosa pseudo dihydroorotase (natural protein, Pseudomonas aeruginosa (strain PAO1), UniProt Q51551 1-423, looked up)
chain: MTISIRGARVIDPASDLDQVGDLHIEAGKIVAIGAAPAGFSAQKTLDGAGLVAAPGLVDLSVALREPGYGRKGNVESETRAAAAGGTTSLCCPPYTRPVLDTPAVAELILDRAREAGNAKVYPIGALTRGFGGEQLSELVALRDTGCVAFTNGLHGFASNRILRRALEYAATFDLTVIFTSQDTDLAEGGLAHEGPTASFLGLAGIPETAETVALARNLLLVEQSGVRAHFSQLTSARGIELVAQAQARGLPVTCDVALYQLILTDEALVGFSSLYHVQPPLRTRADREALREAVKNGVVQAIASHHQPHEADAKNAPFAATEPGISGAELLLPLAMTLVQDGLLDLPTLLARLSHGPAQALRLPAGRLAVGQAADLVLFDPQGSTLAGESWYSKGQNSPFVGHCLPGRVRYTLVDGHLTHEG
notes: Dimer by size exclusion chromatography; also called pDHO; pseudo-DHO; source: also co-transformed and co-purified with mutant ATCases
B1: the binding result is “binds”.
